From PubChem BioAssay AID493014 (National Center for Advancing Translational Sciences (NCATS), 2011)
The other results are listed elsewhere or left out. Shown are side measurements of this screen, not its main read-out; they come without a call. Most of these compounds were active or inconclusive in the main read-out, so they are no random draw. Potencies come from curve fits of mixed quality, noted in brackets.

Experiment: qHTS Assay to Find Inhibitors of Chronic Active B-Cell Receptor Signaling
Conditions: ABC-DLBCL IkBa-CBG/CBR reporter, luminescence ratio (green luciferase fused to IkBa over red control in TMD8 lymphoma cells), 4 h
Method in brief: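 Concentration-response series (up to 46 uM) were applied to TMD8 dual-reporter cells for 4 h at 37C with doxycycline. Green/red ratio, after filter-overlap correction, defined %Activity; red signal alone was normalised to basal cells and zero luminescence.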

[1] = measured here: CBR red luminescence, cell number

For O=C(N/N=C/c1ccc(OCC(=O)N2CCCCC2)cc1)c1ccccc1O, the AC50 [1] was 13 µM [falling, partial curve, poor fit].
In the case of CCC(=O)Nc1ccc(NC(=O)c2cccc(OC)c2)nc1, the AC50 [1] is reported as 8.2 µM [falling, partial curve].
In the case of COc1ccccc1/C=C/C=N/NC(=O)c1ccco1, the AC50 [1] is reported as 1.58 µM [falling, full curve].
In the case of O=C(CCN1CCCCC1)N/N=C/c1c[nH]c2ccccc12, the AC50 [1] is reported as 20 µM [rising, single point].
With CC(C#N)Sc1nc2ccccc2c(=O)n1-c1ccccc1 (centres undefined) the AC50 [1] was 11.2 µM [rising, partial curve, poor fit].
For Cc1[nH]c2ccccc2c1/C=C(\C#N)C(=O)NCc1ccccc1, the AC50 [1] was 1.64 µM [falling, partial curve, poor fit].
For COc1ccc2nc(NC(=O)C3CCCN3S(=O)(=O)c3ccc(C)cc3)sc2c1 (centres undefined), the AC50 [1] was 22.4 µM [falling, partial curve, poor fit].
In the case of O=C(O)c1ccccc1-n1cccc1C(=O)O, the AC50 [1] is reported as 11.2 µM [falling, partial curve, poor fit].
For CCOC(=O)/C=C/C(=O)Nc1cc(S(=O)(=O)Nc2ccc(OC)cc2)ccc1N1CCOCC1, the AC50 [1] was 7.31 µM [falling, partial curve].
For Cc1ccc(NC(=O)C(C)N2C(=O)C3C4CC(C(Br)C4Br)C3C2=O)cc1 (centres undefined), the AC50 [1] was 14.1 µM [falling, partial curve, poor fit].
For CSc1ccccc1NC(=O)COc1ccc(Cl)cc1, the AC50 [1] was 7.31 µM [falling, partial curve].
In the case of CC(=O)N1Cc2ccccc2CC1C(=O)O (centres undefined), the AC50 [1] is reported as 4.61 µM [falling, single point].
With CC(/C=N/NC(=O)c1cccs1)=C\c1ccco1 the AC50 [1] was 10 µM [falling, partial curve, poor fit].
In the case of Clc1ccc(Cn2c(/C=C/c3ccco3)nc3ccccc32)cc1, the AC50 [1] is reported as 20.6 µM [falling, single point] and the AC50 (measured here: IkBa-CBG green luminescence) is reported as 23.1 µM [rising, partial curve, poor fit].
In the case of O=C(COc1ccccc1[N+](=O)[O-])N(Cc1cccc(Br)c1)C1CCS(=O)(=O)C1 (centres undefined), the AC50 [1] is reported as 8.91 µM [falling, partial curve, poor fit].
With COc1ccccc1-c1cc(-c2ccc(C)cc2)nc(SCc2nnc(-c3ccccc3)o2)c1C#N the AC50 [1] was 0.0731 µM [rising, full curve, poor fit].
With CC(C)(O)C1=NOC(c2ccccc2)C1 (centres undefined) the AC50 [1] was 16.4 µM [falling, single point].
For COc1ccc(-c2csc3ncnc(N4CCN(S(=O)(=O)c5cccs5)CC4)c23)cc1, the AC50 [1] was 8.2 µM [rising, partial curve].
